Test results from the supplement of paper PMC12819154, “High-throughput peptide-centric local stability assay extends protein–ligand identification to membrane proteins, tissues and bacteria” (Nature Structural & Molecular Biology, 2025).
Some of the results follow. Small differences around the control level are noise.

Chains of the proteins cited; added tags and fusions are not shown. Lines headed by an entry give the natural chain unless they say otherwise; changes in a name come on top.
UniProt Q96T76: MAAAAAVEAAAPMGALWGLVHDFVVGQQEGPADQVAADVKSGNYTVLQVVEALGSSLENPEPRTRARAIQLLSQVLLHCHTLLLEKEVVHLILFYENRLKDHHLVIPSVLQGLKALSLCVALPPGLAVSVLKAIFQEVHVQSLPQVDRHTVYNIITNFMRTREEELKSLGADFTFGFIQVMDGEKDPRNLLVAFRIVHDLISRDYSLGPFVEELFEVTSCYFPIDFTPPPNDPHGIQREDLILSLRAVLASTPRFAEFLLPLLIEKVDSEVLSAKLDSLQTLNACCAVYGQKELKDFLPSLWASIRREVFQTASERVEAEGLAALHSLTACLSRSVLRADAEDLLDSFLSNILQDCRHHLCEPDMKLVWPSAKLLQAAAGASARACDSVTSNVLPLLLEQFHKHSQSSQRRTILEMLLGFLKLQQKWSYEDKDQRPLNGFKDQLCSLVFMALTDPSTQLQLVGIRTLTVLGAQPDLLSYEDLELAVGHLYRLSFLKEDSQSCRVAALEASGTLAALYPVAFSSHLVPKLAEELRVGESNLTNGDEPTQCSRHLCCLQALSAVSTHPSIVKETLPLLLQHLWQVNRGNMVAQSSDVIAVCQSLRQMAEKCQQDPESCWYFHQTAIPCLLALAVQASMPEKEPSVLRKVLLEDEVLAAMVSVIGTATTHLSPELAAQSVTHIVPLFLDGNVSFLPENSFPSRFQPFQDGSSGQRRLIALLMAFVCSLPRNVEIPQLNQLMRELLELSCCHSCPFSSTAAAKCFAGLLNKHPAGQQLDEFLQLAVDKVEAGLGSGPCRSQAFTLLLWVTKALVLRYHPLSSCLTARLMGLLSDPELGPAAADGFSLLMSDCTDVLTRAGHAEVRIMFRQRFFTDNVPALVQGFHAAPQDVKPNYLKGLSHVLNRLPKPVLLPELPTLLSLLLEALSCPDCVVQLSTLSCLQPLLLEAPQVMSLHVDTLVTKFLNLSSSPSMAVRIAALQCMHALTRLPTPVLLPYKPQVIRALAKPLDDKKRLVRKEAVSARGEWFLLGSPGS
UniProt Q9BRT8: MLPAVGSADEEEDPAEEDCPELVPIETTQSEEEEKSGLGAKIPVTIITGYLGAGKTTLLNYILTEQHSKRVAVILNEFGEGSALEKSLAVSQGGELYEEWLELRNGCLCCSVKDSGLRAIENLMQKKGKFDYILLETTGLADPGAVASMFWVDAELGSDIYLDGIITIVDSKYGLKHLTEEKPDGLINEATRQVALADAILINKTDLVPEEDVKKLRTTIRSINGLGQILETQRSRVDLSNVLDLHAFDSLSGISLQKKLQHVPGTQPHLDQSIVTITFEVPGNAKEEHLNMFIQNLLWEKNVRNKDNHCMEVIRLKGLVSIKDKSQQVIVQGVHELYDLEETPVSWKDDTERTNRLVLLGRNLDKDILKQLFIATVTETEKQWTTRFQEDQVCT
UniProt Q9BTM9: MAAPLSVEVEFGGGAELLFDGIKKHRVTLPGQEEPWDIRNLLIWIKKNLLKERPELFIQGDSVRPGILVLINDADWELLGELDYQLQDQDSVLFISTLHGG
UniProt Q99612: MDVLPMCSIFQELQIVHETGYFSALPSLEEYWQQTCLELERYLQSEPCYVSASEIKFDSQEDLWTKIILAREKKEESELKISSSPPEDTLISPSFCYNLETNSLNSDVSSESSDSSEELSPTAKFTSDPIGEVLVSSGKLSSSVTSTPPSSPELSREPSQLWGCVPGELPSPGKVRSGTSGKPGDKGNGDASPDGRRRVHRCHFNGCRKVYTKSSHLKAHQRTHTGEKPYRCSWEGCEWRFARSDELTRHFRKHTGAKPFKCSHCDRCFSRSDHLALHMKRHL
UniProt Q9BSK4: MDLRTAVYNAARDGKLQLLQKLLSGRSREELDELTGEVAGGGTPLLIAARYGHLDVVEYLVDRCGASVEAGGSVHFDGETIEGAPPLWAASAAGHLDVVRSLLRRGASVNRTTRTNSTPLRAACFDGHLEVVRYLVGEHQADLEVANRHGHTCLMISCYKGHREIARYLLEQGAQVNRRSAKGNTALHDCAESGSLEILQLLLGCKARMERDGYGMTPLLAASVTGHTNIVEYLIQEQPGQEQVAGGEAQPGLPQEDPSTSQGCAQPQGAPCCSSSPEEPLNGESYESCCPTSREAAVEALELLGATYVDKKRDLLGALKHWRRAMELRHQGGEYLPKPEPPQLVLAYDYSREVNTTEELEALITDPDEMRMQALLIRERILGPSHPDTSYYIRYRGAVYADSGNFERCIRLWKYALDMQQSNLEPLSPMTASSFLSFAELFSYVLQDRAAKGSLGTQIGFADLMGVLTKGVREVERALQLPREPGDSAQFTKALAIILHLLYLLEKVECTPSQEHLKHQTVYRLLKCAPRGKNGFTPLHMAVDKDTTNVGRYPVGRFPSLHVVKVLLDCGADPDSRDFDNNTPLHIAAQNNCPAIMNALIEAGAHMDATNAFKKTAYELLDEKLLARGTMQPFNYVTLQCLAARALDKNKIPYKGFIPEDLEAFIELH
UniProt Q9BQ75: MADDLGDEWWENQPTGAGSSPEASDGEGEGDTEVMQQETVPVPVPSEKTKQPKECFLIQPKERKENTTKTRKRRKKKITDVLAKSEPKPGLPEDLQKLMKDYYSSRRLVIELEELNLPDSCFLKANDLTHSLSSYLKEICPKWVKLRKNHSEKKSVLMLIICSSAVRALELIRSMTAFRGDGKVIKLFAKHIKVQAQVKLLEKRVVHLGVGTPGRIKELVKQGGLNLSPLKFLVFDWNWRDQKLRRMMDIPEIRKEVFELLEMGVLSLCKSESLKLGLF
UniProt Q9BRQ3: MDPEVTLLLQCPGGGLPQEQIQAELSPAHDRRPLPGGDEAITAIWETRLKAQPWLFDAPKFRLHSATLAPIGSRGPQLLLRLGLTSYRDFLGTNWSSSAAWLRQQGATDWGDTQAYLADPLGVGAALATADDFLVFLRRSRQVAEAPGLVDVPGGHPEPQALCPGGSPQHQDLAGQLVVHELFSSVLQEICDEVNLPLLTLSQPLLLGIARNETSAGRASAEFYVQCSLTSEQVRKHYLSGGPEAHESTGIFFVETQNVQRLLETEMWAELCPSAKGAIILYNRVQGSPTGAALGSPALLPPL
UniProt Q9BTK6, whole entry: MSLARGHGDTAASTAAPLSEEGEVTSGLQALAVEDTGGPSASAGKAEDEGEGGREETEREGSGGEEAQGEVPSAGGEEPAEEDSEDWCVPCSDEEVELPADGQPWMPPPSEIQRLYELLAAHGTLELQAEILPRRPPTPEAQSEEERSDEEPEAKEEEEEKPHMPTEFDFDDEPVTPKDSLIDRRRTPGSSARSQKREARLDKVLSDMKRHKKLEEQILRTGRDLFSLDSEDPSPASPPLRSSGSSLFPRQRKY
UniProt Q96SW2: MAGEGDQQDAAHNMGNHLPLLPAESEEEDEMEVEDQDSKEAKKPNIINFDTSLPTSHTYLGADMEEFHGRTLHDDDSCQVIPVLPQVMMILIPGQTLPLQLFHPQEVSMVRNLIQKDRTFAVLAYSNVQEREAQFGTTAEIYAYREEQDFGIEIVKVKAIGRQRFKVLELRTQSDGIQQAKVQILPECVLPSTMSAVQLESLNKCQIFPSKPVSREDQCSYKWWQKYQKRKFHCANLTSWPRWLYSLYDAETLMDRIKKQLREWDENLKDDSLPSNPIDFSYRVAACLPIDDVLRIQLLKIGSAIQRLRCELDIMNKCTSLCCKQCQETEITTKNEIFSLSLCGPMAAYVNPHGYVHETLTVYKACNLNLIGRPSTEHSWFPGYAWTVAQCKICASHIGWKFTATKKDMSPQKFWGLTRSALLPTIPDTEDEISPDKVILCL
UniProt Q9BTE6: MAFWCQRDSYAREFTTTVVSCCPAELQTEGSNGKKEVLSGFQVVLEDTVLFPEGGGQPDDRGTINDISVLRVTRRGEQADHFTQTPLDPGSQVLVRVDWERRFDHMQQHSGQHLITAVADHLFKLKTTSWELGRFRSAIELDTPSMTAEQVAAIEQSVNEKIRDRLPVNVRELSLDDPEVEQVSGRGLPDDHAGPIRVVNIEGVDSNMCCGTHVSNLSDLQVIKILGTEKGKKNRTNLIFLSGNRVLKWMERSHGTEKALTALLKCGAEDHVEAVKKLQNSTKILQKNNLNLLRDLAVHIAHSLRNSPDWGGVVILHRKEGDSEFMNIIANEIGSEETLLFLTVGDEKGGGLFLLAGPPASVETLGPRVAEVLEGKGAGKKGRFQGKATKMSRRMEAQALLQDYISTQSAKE
UniProt Q96SK2: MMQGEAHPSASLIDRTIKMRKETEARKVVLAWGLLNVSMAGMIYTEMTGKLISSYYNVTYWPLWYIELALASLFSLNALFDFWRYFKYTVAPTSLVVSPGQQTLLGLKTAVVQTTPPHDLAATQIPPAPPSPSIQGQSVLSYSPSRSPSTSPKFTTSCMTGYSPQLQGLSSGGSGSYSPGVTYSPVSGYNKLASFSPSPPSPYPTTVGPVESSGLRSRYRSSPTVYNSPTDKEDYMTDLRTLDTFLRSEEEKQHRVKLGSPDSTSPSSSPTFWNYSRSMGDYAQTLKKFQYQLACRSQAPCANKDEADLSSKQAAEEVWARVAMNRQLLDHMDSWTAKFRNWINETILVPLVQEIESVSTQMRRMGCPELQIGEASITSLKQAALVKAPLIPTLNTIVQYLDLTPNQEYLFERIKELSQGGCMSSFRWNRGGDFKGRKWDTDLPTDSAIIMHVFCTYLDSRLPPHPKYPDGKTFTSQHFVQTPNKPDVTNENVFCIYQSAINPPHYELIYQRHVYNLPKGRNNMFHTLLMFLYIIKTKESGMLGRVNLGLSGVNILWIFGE
UniProt Q99576: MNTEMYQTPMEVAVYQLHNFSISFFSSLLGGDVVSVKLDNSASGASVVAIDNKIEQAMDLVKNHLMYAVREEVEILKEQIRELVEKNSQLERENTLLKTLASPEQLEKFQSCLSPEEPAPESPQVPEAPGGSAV
UniProt Q9BRP1: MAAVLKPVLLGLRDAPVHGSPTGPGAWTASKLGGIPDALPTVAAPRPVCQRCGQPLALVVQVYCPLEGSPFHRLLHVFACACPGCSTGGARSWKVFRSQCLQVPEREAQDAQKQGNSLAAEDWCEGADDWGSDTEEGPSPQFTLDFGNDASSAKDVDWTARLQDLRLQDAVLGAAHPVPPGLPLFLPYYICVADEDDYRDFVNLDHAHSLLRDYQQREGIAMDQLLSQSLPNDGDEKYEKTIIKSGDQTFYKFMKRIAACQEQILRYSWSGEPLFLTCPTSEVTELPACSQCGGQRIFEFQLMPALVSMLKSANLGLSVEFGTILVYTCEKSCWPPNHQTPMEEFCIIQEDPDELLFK
UniProt Q9BUF5, whole entry: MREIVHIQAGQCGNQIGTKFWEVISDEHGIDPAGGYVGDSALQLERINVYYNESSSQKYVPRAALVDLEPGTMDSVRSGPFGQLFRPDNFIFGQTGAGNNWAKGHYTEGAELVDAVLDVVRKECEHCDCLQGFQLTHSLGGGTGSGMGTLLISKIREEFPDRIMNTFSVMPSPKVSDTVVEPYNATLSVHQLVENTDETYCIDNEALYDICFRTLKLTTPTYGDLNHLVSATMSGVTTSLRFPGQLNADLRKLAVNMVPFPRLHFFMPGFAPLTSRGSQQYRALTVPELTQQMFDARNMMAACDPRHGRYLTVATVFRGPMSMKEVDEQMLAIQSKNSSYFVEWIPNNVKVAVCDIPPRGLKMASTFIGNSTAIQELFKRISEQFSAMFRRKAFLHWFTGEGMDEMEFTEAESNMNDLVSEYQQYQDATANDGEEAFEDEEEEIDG
UniProt Q9BRQ8: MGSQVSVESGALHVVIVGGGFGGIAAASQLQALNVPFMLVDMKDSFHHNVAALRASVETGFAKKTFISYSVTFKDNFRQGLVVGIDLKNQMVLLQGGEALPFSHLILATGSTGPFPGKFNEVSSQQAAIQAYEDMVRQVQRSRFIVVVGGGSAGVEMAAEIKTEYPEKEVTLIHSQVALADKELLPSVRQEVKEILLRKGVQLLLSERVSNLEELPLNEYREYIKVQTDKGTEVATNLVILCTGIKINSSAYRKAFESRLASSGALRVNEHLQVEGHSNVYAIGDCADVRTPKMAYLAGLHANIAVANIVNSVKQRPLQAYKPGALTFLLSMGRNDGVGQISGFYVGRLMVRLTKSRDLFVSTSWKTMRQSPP
UniProt Q99956: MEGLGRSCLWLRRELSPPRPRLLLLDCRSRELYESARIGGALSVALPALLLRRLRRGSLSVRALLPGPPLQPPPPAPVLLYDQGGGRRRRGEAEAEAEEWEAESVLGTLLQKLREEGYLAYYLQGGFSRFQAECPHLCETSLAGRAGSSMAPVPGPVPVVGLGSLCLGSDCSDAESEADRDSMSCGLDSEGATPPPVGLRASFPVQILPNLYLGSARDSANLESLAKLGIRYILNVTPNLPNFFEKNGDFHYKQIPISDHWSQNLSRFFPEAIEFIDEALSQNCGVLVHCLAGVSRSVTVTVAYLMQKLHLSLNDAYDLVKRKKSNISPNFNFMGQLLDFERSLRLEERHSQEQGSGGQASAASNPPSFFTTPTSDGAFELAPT

Compound: Cc1nc(Nc2ncc(C(=O)Nc3c(C)cccc3Cl)s2)cc(N2CCN(CCO)CC2)n1 [dasatinib]
Assay: log2 fold change of tryptic peptide abundance, ligand vs vehicle (limited proteolysis) (log2 ratio); higher = more trypsin-susceptible (destabilized)
Conditions: ligand concentration: 5 uM; sample: K562 cleared lysate

## MMS19 (peptide sequence: CFAGLLNK, peptide start residue: 760) (UniProt Q96T76)
  log2 fold change: 0.167

## CBWD1 (peptide sequence: NGCLCCSVKDSGLR, peptide start residue: 105) (UniProt Q9BRT8)
  log2 fold change: -0.134

## SIN3A (peptide sequence: RLDDQESPVYAAQQR, peptide start residue: 4) (UniProt Q96ST3)
  log2 fold change: 0.177

## URM1 (peptide sequence: HRVTLPGQEEPWDIR, peptide start residue: 25) (UniProt Q9BTM9)
  log2 fold change: -0.32

## IWS1 (peptide sequence: KLTLLPAVVMHLK, peptide start residue: 587) (UniProt Q96ST2)
  log2 fold change: -0.245

## GPATCH1 (peptide sequence: QKPDPGVK, peptide start residue: 182) (UniProt Q9BRR8)
  log2 fold change: -0.336

## UniProt Q9BQI3 (peptide sequence: SREVALEAQTSR, peptide start residue: 151)
  log2 fold change: 0.204

## UniProt Q99612 (peptide sequence: SDHLALHMK, peptide start residue: 351)
  log2 fold change: 0.24

## PI4K2A (peptide sequence: LALEKVPK, peptide start residue: 236) (UniProt Q9BTU6)
  log2 fold change: -0.0258

## FEM1A (peptide sequence: VLLDCGADPDSR, peptide start residue: 566) (UniProt Q9BSK4)
  log2 fold change: 0.737

## UniProt Q9BQ75 (peptide sequence: VVHLGVGTPGR, peptide start residue: 205)
  log2 fold change: -0.383

## NUDT22 (peptide sequence: AQPWLFDAPK, peptide start residue: 51) (UniProt Q9BRQ3)
  log2 fold change: -0.181

## UniProt Q9BSH4 (peptide sequence: FICDASSLHQVRK, peptide start residue: 232)
  log2 fold change: 0.299

## UniProt Q9BRP8 (peptide sequence: LRQVEELQQR, peptide start residue: 161)
  log2 fold change: 0.27

## MRPL45 (peptide sequence: IVPPWAPPKQPILK, peptide start residue: 265) (UniProt Q9BRJ2)
  log2 fold change: -0.0933

## UniProt Q9BTK6 (peptide sequence: LEEQILR, peptide start residue: 214)
  log2 fold change: -0.127

## CRBN (peptide sequence: TQSDGIQQAK, peptide start residue: 172) (UniProt Q96SW2)
  log2 fold change: -0.145

## AARSD1 (peptide sequence: TTSWELGR, peptide start residue: 127) (UniProt Q9BTE6)
  log2 fold change: 0.477

## TMEM209 (peptide sequence: TLDTFLR, peptide start residue: 241) (UniProt Q96SK2)
  log2 fold change: -0.0901

## DNAJC7 (peptide sequence: FREALGDAQQSVR, peptide start residue: 78) (UniProt Q99615)
  log2 fold change: -0.21

## TSC22D3 (peptide sequence: EEVEILKEQIR, peptide start residue: 71) (UniProt Q99576)
  log2 fold change: -0.00394

## WRNIP1 (peptide sequence: AGLNGLQLAVLAR, peptide start residue: 442) (UniProt Q96S55)
  log2 fold change: 0.0977

## PDCD2L (peptide sequence: DVDWTAR, peptide start residue: 155) (UniProt Q9BRP1)
  log2 fold change: 0.0875

## EBNA1BP2 (peptide sequence: QCLAEFKR, peptide start residue: 55) (UniProt Q99848)
  log2 fold change: -0.149

## TCF12 (peptide sequence: LDRLDDAIHVLR, peptide start residue: 404) (UniProt Q99081)
  log2 fold change: -0.183

## UniProt Q99683 (peptide sequence: ILTEDQDKIVR, peptide start residue: 1057)
  log2 fold change: -0.279

## TUBB6 (peptide sequence: YLTVATVFR, peptide start residue: 310) (UniProt Q9BUF5)
  log2 fold change: -2.99

## AIFM2 (peptide sequence: VNEHLQVEGHSNVYAIGDCADVR, peptide start residue: 268) (UniProt Q9BRQ8)
  log2 fold change: -0.174

## DUSP9 (peptide sequence: LHLSLNDAYDLVKR, peptide start residue: 309) (UniProt Q99956)
  log2 fold change: 0.524
